Assay results reported in patent US20240140931A1, “TRICYCLIC COMPOUNDS AND USES THEREOF” (HUTCHMED LIMITED, priority 2021, published 2024).

The chains behind the UniProt entries cited, without tags or fusion partners.
UniProt Q06124, whole entry: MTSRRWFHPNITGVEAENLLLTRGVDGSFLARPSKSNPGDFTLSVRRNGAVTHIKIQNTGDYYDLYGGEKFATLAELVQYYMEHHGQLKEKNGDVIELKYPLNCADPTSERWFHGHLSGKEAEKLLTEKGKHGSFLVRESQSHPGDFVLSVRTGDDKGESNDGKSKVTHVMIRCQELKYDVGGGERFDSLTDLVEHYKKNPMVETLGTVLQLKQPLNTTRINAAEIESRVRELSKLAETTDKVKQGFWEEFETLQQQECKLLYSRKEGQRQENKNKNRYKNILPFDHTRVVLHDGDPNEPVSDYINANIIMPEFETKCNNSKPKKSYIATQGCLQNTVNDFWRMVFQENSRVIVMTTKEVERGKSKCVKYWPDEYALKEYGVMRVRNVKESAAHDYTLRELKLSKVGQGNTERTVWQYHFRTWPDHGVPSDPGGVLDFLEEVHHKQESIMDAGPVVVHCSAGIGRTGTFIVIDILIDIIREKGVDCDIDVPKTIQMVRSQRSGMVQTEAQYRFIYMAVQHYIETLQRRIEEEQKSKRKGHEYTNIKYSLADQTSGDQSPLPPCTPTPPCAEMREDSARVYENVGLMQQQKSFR

Legend:
[1] = biological target: Human full-length SHP2 recombinant protein (Homo sapiens (Human), UniProt Q06124); test: Assay of full-length SHP2 phosphatase activity; conditions: DiFMUP substrate, with activating peptide
Method: Example 2 Assay of Full-Length SHP2 Phosphatase Activity
1. Reagents and Materials • Human full-length SHP2 recombinant protein: BPS Bioscience, Cat #79018; • SHP2 substrate DiFMUP (1 mM): BPS Bioscience, Cat #79769; • SHP2 activating peptide (100 μM): BPS Bioscience, Cat #79319-2; • DTT: Merck, Cat #DTT-RO; • 384-well plate: Corning, Cat #3575; • 96-well plate: Thermo Fisher Scientific, Cat #249952; • Instrument: EnVision 2104, PerkinElmer.
2. Preparation of Reaction Solutions
The test compound was dissolved in DMSO and diluted with DMSO to 100.0 μM, and the compound was further 3-fold diluted with DMSO to: 100.00, 33.33, 11.11, 3.70, 1.23, 0.41, 0.14 and 0.05 μM. […]
wherein • the RFU of compound well refers to the fluorescence reading at 460 nm of the well containing the test compounds; • the RFU of negative control well refers to the fluorescence reading at 460 nm of the background well containing 1% DMSO and the enzymatic reaction buffer; • the RFU of positive control well refers to the fluorescence reading at 460 nm of the well containing 1% DMSO and the mixed solution of SHP2 enzyme/activating peptide.
(§1) IC50 values were calculated following formula 205: y=A+((B−A)/(1+((C/X)^D))), by using the XL-Fit 5.0 software.

[2] = tested on: pERK1/2 (Thr202/Tyr204) in Miapaca2 cells; test: Assay of intracellular pERK1/2 (Thr202/Tyr204) phosphorylation; conditions: pERK1/2 (Thr202/Tyr204) HTRF, 2 hours
Method: Example 3 Assay of Intracellular pERK1/2 (Thr202/Tyr204) Phosphorylation
1. Reagents and Materials • pERK1/2 (Thr202/Tyr204) HTRF kit: Cisbio, Cat #64ERKPEH; • Cell line: Miapaca2, ATCC, CRL-1420; • OptiPlate™-384-well plate: PerkinElmer, Cat #6007299; • 96-well plate: Corning, Cat #353072; • Instrument: EnVision2104, PerkinElmer.
2. Preparation of Reaction Solutions • The test compound was dissolved in DMSO and diluted with DMSO to 600.0 μM, and the compound was further 3-fold diluted with DMSO to: 600.0, 200.0, 66.7, 22.2, 7.4, 2.5, 0.82 and 0.27 μM. […]
wherein • the fluorescence ratio of compound well refers to the fluorescence ratio of the well containing the test compounds; • the fluorescence ratio of negative control well refers to the fluorescence ratio of the background containing the cell lysis buffer and no Miapaca2 cells; • the fluorescence ratio of positive control well refers to the fluorescence ratio of the well containing 0.5% DMSO and Miapaca2 cells.
as §1

Q: What does the source list for C#Cc1ccc2c(c1)[C@@H](N)C1(CCN(c3cc(=O)n(-c4ccc(OC)c(F)c4Cl)c(C)n3)CC1)C2?
A: IC50 [1]: 23 nM; IC50 [2]: 223 nM

The structures given here were assigned with low confidence; some may be wrong.
